# PubChem BioAssay AID1224831, NIAID | 2016
# Assay: 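Confirming genome-wide hits on LPS-triggered TNF-alpha induction with independent siRNA sequences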 (follow-up of hits)
# Cell system: human THP-1 B5 monocytic leukaemia cells carrying a TNF promoter luciferase reporter, made macrophage-like with PMA
# Knock-down reagent: single siRNA against human genes, 50 nM
# Duration: about 68 h of knock-down, then 4 h LPS
# Treatment: LPS (Salmonella minnesota, TLR-grade) at 10 ng/ml for 4 h; PMA 5 ng/ml present during knock-down
# Read-out: 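Firefly to renilla luciferase ratio of a TNF promoter reporter after 4 h LPS, scaled to plate median, turned into robust z-score, averaged over replicates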
# Direction: TNF reporter z-score: higher = stronger LPS-induced TNF reporter signal; z-score, median over gene's siRNAs: higher = stronger TNF reporter signal across the gene's siRNAs
# Hit rule: 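Active when the replicate mean z-score is about -1 or lower, or about 1.5 or higher; lowered and raised TNF reporter signal both count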
# Calls: active = changed TNF reporter (either direction); inactive = little change
# Here is an unselected part of about 3,500 reagents. 731 of them (21%) were called active. 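Active means either lowered or raised reporter signal; the gene-median score did not drive the per-siRNA calls.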 Reagents against one gene are numbered here.
"TNF reporter z-score, replicate mean","z-score, median over gene's siRNAs",outcome,gene knocked down,reagent no.
0.34,0.53,inactive,HEATR4,1
0.58,0.53,inactive,HEATR4,2
2.7,0.53,active,HEATR4,3
0.48,0.53,inactive,HEATR4,4
-0.9,0.53,inactive,HEATR4,5
1.27,0.53,inactive,HEATR4,6
0.76,-0.015,inactive,EFS,1
-0.76,-0.015,inactive,EFS,2
0.2,-0.015,inactive,EFS,3
3.16,-0.015,active,EFS,4
-0.23,-0.015,inactive,EFS,5
-0.65,-0.015,inactive,EFS,6
0.25,0.33,inactive,DGKK,1
-0.06,0.33,inactive,DGKK,2
0.68,0.33,inactive,DGKK,3
-0.1,0.33,inactive,DGKK,4
0.41,0.33,inactive,DGKK,5
0.64,0.33,inactive,DGKK,6
-0.17,-0.185,inactive,GBE1,1
1.01,-0.185,inactive,GBE1,2
-0.2,-0.185,inactive,GBE1,3
-0.23,-0.185,inactive,GBE1,4
0.13,-0.185,inactive,GBE1,5
-0.37,-0.185,inactive,GBE1,6
1.32,0.78,inactive,SOX13,1
0.74,0.78,inactive,SOX13,2
0.26,0.78,inactive,SOX13,3
-0.7,0.78,inactive,SOX13,4
1.19,0.78,inactive,SOX13,5
0.82,0.78,inactive,SOX13,6
-0.05,-1.07,inactive,ARRDC2,1
-2.05,-1.07,active,ARRDC2,2
-0.69,-1.07,inactive,ARRDC2,3
-1.72,-1.07,active,ARRDC2,4
-0.99,-1.07,inactive,ARRDC2,5
-1.16,-1.07,active,ARRDC2,6

11 consecutive records already listed, quoted:
"TNF reporter z-score, replicate mean","z-score, median over gene's siRNAs",outcome,gene knocked down,reagent no.
-0.1,0.33,inactive,DGKK,4
0.41,0.33,inactive,DGKK,5
0.64,0.33,inactive,DGKK,6
-0.17,-0.185,inactive,GBE1,1
1.01,-0.185,inactive,GBE1,2
-0.2,-0.185,inactive,GBE1,3
-0.23,-0.185,inactive,GBE1,4
0.13,-0.185,inactive,GBE1,5
-0.37,-0.185,inactive,GBE1,6
1.32,0.78,inactive,SOX13,1
0.74,0.78,inactive,SOX13,2

More records:
"TNF reporter z-score, replicate mean","z-score, median over gene's siRNAs",outcome,gene knocked down,reagent no.
0.55,-0.695,inactive,APBB1IP,1
-0.43,-0.695,inactive,APBB1IP,2
-2.03,-0.695,active,APBB1IP,3
0.53,-0.695,inactive,APBB1IP,4
-0.96,-0.695,inactive,APBB1IP,5
-0.99,-0.695,inactive,APBB1IP,6
-0.67,-0.205,inactive,COPS7A,1
-0.32,-0.205,inactive,COPS7A,2
-0.46,-0.205,inactive,COPS7A,3
-0.09,-0.205,inactive,COPS7A,4
5.2,-0.205,active,COPS7A,5
0.49,-0.205,inactive,COPS7A,6
0.47,-0.2,inactive,TOM1L2,1
2.03,-0.2,active,TOM1L2,2
-1.52,-0.2,active,TOM1L2,3
-0.11,-0.2,inactive,TOM1L2,4
-0.52,-0.2,inactive,TOM1L2,5
-0.29,-0.2,inactive,TOM1L2,6
0.76,0.71,inactive,NELFA,1
1.17,0.71,inactive,NELFA,2
0.34,0.71,inactive,NELFA,3
-0.02,0.71,inactive,NELFA,4
0.66,0.71,inactive,NELFA,5
1,0.71,inactive,NELFA,6
-0.66,-0.34,inactive,ENTREP3,1
-2.09,-0.34,active,ENTREP3,2
-0.02,-0.34,inactive,ENTREP3,3
-0.67,-0.34,inactive,ENTREP3,4
1.09,-0.34,inactive,ENTREP3,5
1.19,-0.34,inactive,ENTREP3,6
-0.97,-0.265,inactive,MAP3K19,1
1.94,-0.265,active,MAP3K19,2
-0.2,-0.265,inactive,MAP3K19,3
-0.43,-0.265,inactive,MAP3K19,4
1.17,-0.265,inactive,MAP3K19,5
-0.33,-0.265,inactive,MAP3K19,6
1.44,0.265,inactive,MAGEA12,1
0.14,0.265,inactive,MAGEA12,2
0.23,0.265,inactive,MAGEA12,3
-0.18,0.265,inactive,MAGEA12,4
0.75,0.265,inactive,MAGEA12,5
0.3,0.265,inactive,MAGEA12,6
0.35,0.3,inactive,TIGD6,1
0.18,0.3,inactive,TIGD6,2
3.29,0.3,active,TIGD6,3
0.07,0.3,inactive,TIGD6,4
0.25,0.3,inactive,TIGD6,5
3.69,0.3,active,TIGD6,6
0.2,0.525,inactive,IL3RA,1
2.18,0.525,active,IL3RA,2
1.84,0.525,active,IL3RA,3
-0.22,0.525,inactive,IL3RA,4
0.85,0.525,inactive,IL3RA,5
0.18,0.525,inactive,IL3RA,6
3.27,0.06,active,GRIP2,1
-0.86,0.06,inactive,GRIP2,2
0.2,0.06,inactive,GRIP2,3
3.59,0.06,active,GRIP2,4
-0.88,0.06,inactive,GRIP2,5
-0.08,0.06,inactive,GRIP2,6
1.26,0.22,inactive,WNT7A,1
-0.79,0.22,inactive,WNT7A,2
-1.39,0.22,active,WNT7A,3
-0.24,0.22,inactive,WNT7A,4
2.66,0.22,active,WNT7A,5
0.68,0.22,inactive,WNT7A,6
-0.12,-0.155,inactive,ITGB1BP1,1
-1,-0.155,active,ITGB1BP1,2
0.92,-0.155,inactive,ITGB1BP1,3
-0.19,-0.155,inactive,ITGB1BP1,4
0.41,-0.155,inactive,ITGB1BP1,5
-1.73,-0.155,active,ITGB1BP1,6
